# Laboratory results published in PubChem BioAssay AID2685 (National Center for Advancing Translational Sciences (NCATS), 2010).
# Some of the results follow. These are further read-outs of the screen, such as a control signal, another cell line or another target. No call is given for them. The list favours compounds with an active or inconclusive main result. Potencies come from curve fits of mixed quality, noted in brackets.
# Experiment: qHTS Assay for Lipid Storage Modulators in Drosophila S3 Cells;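 on cell number change: cells counted by Cell Tracker Red CMTPX staining in the red channel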
# Settings: BODIPY lipid droplet fluorescence, 18-24 h; for cell number change: measured here: cell count max response, cells fed with added oleic acid
# Summary of the method: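 Drosophila S3 cells loaded with oleic acid (400 uM, as added) and compounds at several concentrations; lipid droplets imaged by 488-nm laser-scanning cytometry, 500–530 nm intensity and object ratio to cell channel. Percent activity normalized to 20 uM Triacsin C.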
# [1] = measured here: lipid fluorescence (Fed channel) AC50, cells fed with added oleic acid
# [2] = measured here: cell number channel AC50, cells fed with added oleic acid
Structure (SMILES),cell number change,AC50 [1],AC50 [2]
O=C(Nc1cc(N2CCOCC2)ncn1)Nc1cccc2ccccc12,-14%,,
Cc1c(Br)c([N+](=O)[O-])nn1CC(=O)Nc1ccc(Cc2ccncc2)cc1,-31.2%,"20.6 µM [falling, partial curve, poor fit]",
COc1cc(C(=O)Nc2nc(N)n(-c3ccccc3)n2)cc(OC)c1OC,8.43%,"6.51 µM [rising, single point]",
O=C(CN1CCOCC1)N1CCN(S(=O)(=O)c2ccccc2)C1c1ccccc1 (stereo unspecified),,"2.06 µM [rising, partial curve]","3.66 µM [falling, single point]"
CCCCOc1ccc(C2(C(=O)O)CCCC2)cc1,3.38%,"29.1 µM [falling, single point]",
COc1ccc(-c2c(C)nn3c(N4CCC5(CC4)OCCO5)cc(C)nc23)cc1OC,,"0.0164 µM [rising, full curve, poor fit]","0.461 µM [rising, partial curve, poor fit]"
O=C(NN1CCOCC1)c1sc2cccc(F)c2c1Cl,1.67%,"6.51 µM [falling, single point]",
CCOc1ccc(OCc2nnc(SCC(=O)NC3CCS(=O)(=O)C3)n2-c2ccc(Cl)cc2)cc1 (stereo unspecified),-55%,"29.1 µM [falling, single point]","29.1 µM [falling, single point]"
O=C(N/N=C/c1ccncc1)c1cccc(N/N=C/c2ccncc2)c1,26.6%,"29.1 µM [rising, partial curve]",
CCCCn1c(N)c(N(CC(C)C)C(=O)c2cccc(-n3cnnn3)c2)c(=O)[nH]c1=O,-29.9%,"18.4 µM [falling, partial curve, poor fit]",
O=C(NCc1nc2ccccc2[nH]1)c1ccco1,4.03%,"0.58 µM [falling, full curve]",
CC1CCN(S(=O)(=O)N2CCC(C(=O)N3CCC(N(C)CC4CCCO4)CC3)CC2)CC1 (stereo unspecified),8.13%,"4.11 µM [rising, single point]",
O=[N+]([O-])/C=C/c1cc2ccccc2[nH]1,-34.7%,"9.2 µM [falling, partial curve]","11.6 µM [falling, partial curve]"
O=C(CCCc1c[nH]c2ccccc12)N1CCN(S(=O)(=O)c2cccs2)CC1,0.632%,"1.64 µM [rising, partial curve]","1.64 µM [rising, partial curve, poor fit]"
CCc1ccc(/C=C(/C#N)C(N)=S)s1,22%,,
COC(=O)CCCNC(=O)OCc1ccc([N+](=O)[O-])cc1,80.6%,,"18.4 µM [rising, single point]"
Cc1ccc(NCc2nc3ccccc3n2C)cc1C,-12%,"5.8 µM [rising, single point]",
CC(C)c1ccc(NC(=O)COC(=O)C2CCCCC2)cc1,8.96%,"32.6 µM [rising, single point]",
COc1cc(NC(=O)COc2ccc(Br)cc2)ccc1NC(=O)C(C)C,-47.4%,,"29.1 µM [falling, single point]"
CCOc1ccc(OCC(=O)NCCS(=O)(=O)N2CCN(c3ccc(F)cc3)CC2)cc1,8.87%,"23.1 µM [rising, partial curve, poor fit]",
CCOC(=O)/C(N=Nc1ccc2c(c1)OCO2)=C(\C)O,-8.04%,,
CCCc1cc(C(=O)N(C)CC(=O)Nc2ccc(OCC)c(OCC)c2)sc1C,,,"1.64 µM [rising, partial curve, poor fit]"
CC1=NNC(=O)C1Oc1ccccc1 (stereo unspecified),16.8%,"6.51 µM [falling, single point]",
Cc1ccc(-c2nc(N)n(C(=O)c3cccnc3)n2)cc1,74.5%,"0.206 µM [rising, full curve, poor fit]","16.4 µM [rising, single point]"
CCOc1ccc(NC(=O)CC2C(=O)Nc3ccccc3N2C(=O)c2ccccc2)cc1 (stereo unspecified),17.1%,"0.00461 µM [rising, full curve, poor fit]",
c1ccc(CN(Cc2ccccc2)c2nn[nH]n2)cc1,,"0.103 µM [rising, full curve, poor fit]","0.116 µM [rising, full curve, poor fit]"
Cn1c(=O)c2c(nc(SCC(=O)NC3CCCC3)n2C)n(C)c1=O,-20.6%,"0.231 µM [rising, partial curve, poor fit]",
Cc1ccc(S(=O)(=O)NCc2ccccc2)cc1C(=O)NCC(C)(C)N1CCOCC1,,"0.291 µM [falling, partial curve, poor fit]",

# Gathered by group, the entries above containing a thiophene ring, fused or not.
Structure (SMILES),cell number change,AC50 [1],AC50 [2]
O=C(NN1CCOCC1)c1sc2cccc(F)c2c1Cl,1.67%,"6.51 µM [falling, single point]",
O=C(CCCc1c[nH]c2ccccc12)N1CCN(S(=O)(=O)c2cccs2)CC1,0.632%,"1.64 µM [rising, partial curve]","1.64 µM [rising, partial curve, poor fit]"
CCc1ccc(/C=C(/C#N)C(N)=S)s1,22%,,
CCCc1cc(C(=O)N(C)CC(=O)Nc2ccc(OCC)c(OCC)c2)sc1C,,,"1.64 µM [rising, partial curve, poor fit]"

# Following part:

Structure (SMILES),cell number change,AC50 [1],AC50 [2]
Cc1ccc(NC(=O)CN(C)C(=O)COC(=O)c2nccnc2N)cc1,36.2%,,"29.1 µM [rising, single point]"
Clc1ccc2c(c1)c1cc(Cl)ccc1n2CN1CCOCC1,-72.1%,"25.9 µM [falling, partial curve]","25.9 µM [falling, partial curve, poor fit]"
O=C(COc1cccc2cccnc12)N/N=C1\SCC(=O)N1Cc1ccccc1,,"3.66 µM [rising, full curve]","2.31 µM [rising, partial curve]"
CCOC(=O)c1c(NC(=O)c2ccc(Cl)s2)sc(C)c1C,,,"0.231 µM [rising, partial curve, poor fit]"
Cc1ccc(C(=O)O)c(C(=O)Nc2nc(C)cs2)c1,-8.11%,"0.146 µM [falling, full curve, poor fit]","0.0146 µM [falling, full curve]"
CCCCOc1ccc(NC(=O)CCSc2nccn2C)cc1,25.9%,"1.16 µM [rising, full curve, poor fit]",
Cn1[nH]c(-c2ccccc2)c(/C=N/O)c1=O,7.74%,"0.731 µM [rising, partial curve, poor fit]",
CCOC(=O)CN1C(=O)C(Sc2n[nH]c(-c3cccc(C)c3)n2)CCc2ccccc21 (stereo unspecified),-13.5%,"16.4 µM [falling, single point]",
CCN(CC)C(=O)CCCc1c[nH]c2ccccc12,-52.6%,,"1.84 µM [falling, partial curve]"
COc1cccc(OC)c1C(=O)NCCN1CCN(C(=O)c2c(OC)cccc2OC)CC1,-4.23%,"0.103 µM [falling, full curve, poor fit]",
CCOC(=O)CNC(=O)CSc1nccn1Cc1ccco1,10.8%,,
CC1CN(c2ccc([N+](=O)[O-])c(NCCOc3ccc(Cl)cc3)c2)CC(C)N1 (stereo unspecified),-24.7%,"29.1 µM [rising, single point]",
C=CCn1c(C)c(C(=O)OCC)c2cc(O)c3ccccc3c21,0.709%,"3.66 µM [falling, full curve, poor fit]",
COCCCNC(=O)c1ccc(Cn2c(=O)c3ccccc3n(CC(=O)NCCc3ccc(OC)c(OC)c3)c2=O)cc1,-3.76%,,"0.461 µM [falling, full curve, poor fit]"
COc1cc(OC)nc(-n2ncc(Br)c(Br)c2=O)n1,-81.1%,"5.8 µM [falling, partial curve]","14.6 µM [falling, partial curve]"
COc1ccccc1Nc1nc(-c2cccc([N+](=O)[O-])c2)cs1,4.21%,"29.1 µM [rising, single point]","3.66 µM [rising, single point]"
CNC(=O)C1(C)C=CCN1C(=O)c1ccccc1 (stereo unspecified),-15.8%,"0.82 µM [falling, full curve, poor fit]",
COC(=O)CSc1nc2c(c(=O)n(C)c(=O)n2C)n1CCC(C)C,-55.1%,"29.1 µM [falling, single point]","29.1 µM [falling, single point]"
O=C(CNC(=O)c1ccc(Br)cc1)NC1=NCCS1,-10.5%,"0.13 µM [falling, partial curve, poor fit]",
CCCN1C=CC(=C/C=C(\C#N)C(=O)OCC)C=C1,-76.3%,"29.1 µM [falling, single point]","29.1 µM [falling, single point]"
CN1CCCCCC1=NC1=C(C#N)CCCC1,-32.6%,"9.2 µM [falling, partial curve]","4.11 µM [falling, full curve]"
CCc1nnc(NC(=O)CSc2nnc(CNc3ccc(Cl)cc3)o2)s1,12.8%,"0.82 µM [falling, full curve, poor fit]",
CCOC(=O)N1CCC(Nc2c(NCCCN(CC)CC)c(=O)c2=O)CC1,17.9%,"0.731 µM [rising, partial curve, poor fit]","4.11 µM [rising, partial curve, poor fit]"
COC(=O)Cn1cnc2c(C#N)c3n(c2c1=O)CCCC3,24.6%,,
CCc1ccc(-n2nc3ccc(NC(=O)c4ccc5c(c4)OCO5)cc3n2)cc1,-37.1%,"6.51 µM [falling, single point]","3.66 µM [falling, partial curve]"
COC(=O)c1ccc(S(=O)(=O)N2CCC(C(N)=O)CC2)n1C,-2.17%,"0.00461 µM [falling, full curve, poor fit]",
CCCCn1c(N)c(-c2nc3ccccc3s2)c2c([N+](=O)[O-])nn(CC)c(=O)c21,-7.98%,"6.51 µM [rising, single point]","0.0651 µM [rising, full curve, poor fit]"
